# Reference: the supplement of paper PMC5949888
# Most values lie at the floor of the assay. Slopes are relative: functional sequences can read slightly below zero.
# System: Saccharomyces cerevisiae PS128 hsf1 delta, HSF1(1-493) fusion
# Assay: growth estimate (transactivation domain function in HSF1 fusion, heat-shock survival) (a.u. (slope of normalised read count over time)); higher = stronger growth at 37°C, i.e. more transactivation activity
# Conditions: library: random library
row,Substance,growth estimate
1,NVRVRHNRKRIRYPCAASTA,< -0.25
2,SLSFREARDLGCPEQTRDDV,< -0.25
3,RSWVVDDYQNLFIKARSDPF,-0.24
4,SVEAVSCFFHEARCESWGRD,-0.0858
5,FQLKLQLHPWGFEGLSAGIL,< -0.25
6,GEKFTELYLSGIII,< -0.25
7,TPAVVAWELSEK,< -0.25
8,VVRIHLH,< -0.25
9,LWTPKCVCVTLVPGGGFTCS,< -0.25
10,SGRQGAQPGVCVERCLPACD,< -0.25
11,LQASLRVYGLCWPHNAFATG,< -0.25
12,IGGTLCGADCGFGRRVTSTR,-0.243
13,LRVLVSARNLDALP,< -0.25
14,SCRRASTVDTERSVPLECVR,< -0.25
15,GGEFAWAEHGRKPVYSLCHN,< -0.25
16,ILRWCSPRRPACEI,< -0.25
17,TSVGKICNE,< -0.25
18,TLRGGIARPHSETPLSENGP,< -0.25
19,HAMTVARPGL,< -0.25
20,WTPRDRHVHTDEKRSRFRQM,< -0.25
21,PIRIDLETVV,< -0.25
22,TKLYPNPPYMRRSIGLAVPG,< -0.25
23,GTNMESGVGRIITGGYCRAW,< -0.25
24,QYRTKGVAHVKWFWHAPSET,< -0.25

row,Substance,growth estimate
1,RRSKINDEESVMNRVPRAQL,< -0.25
2,ILMSVDP,< -0.25
3,PHG,< -0.25
4,THRIVGLEII,< -0.25
5,RDYAACR,< -0.25
6,PPFKGT,< -0.25
7,VILFSGGLESPSKNLTPRCV,-0.237
8,YAHRNSFKVR,< -0.25
9,WSATTNRSLSKCNQLRRALI,< -0.25
10,TSTMSG,< -0.25
11,RITQRNRARKYTTGVLNKVS,< -0.25
12,SQPLPICGVKSRAPLFRSLR,< -0.25
13,GVLMINN,< -0.25
14,GCFLRPPGSFQELLLISVVI,< -0.25
15,RCSHHGGASEST,< -0.25
16,HTRDPPTTLDSGGSHKTSST,< -0.25
17,DLRVVVSRYQVKV,< -0.25
18,RCVPVIGTLRRNTLSLGVT,< -0.25
19,TLAYGRSPIFLRGLEGSLGL,< -0.25
20,TDNV,< -0.25
21,GNPSIPHGVSVAARFELNAV,< -0.25
22,LAVGTLLKKVRMPSPQTGYE,< -0.25
23,RVRNDRVVPPDEHTA,< -0.25
24,NQATEFSRSERSLTLSEQFH,< -0.25

# In a second layout: results already given
row	Substance	growth estimate
14	GCFLRPPGSFQELLLISVVI	< -0.25
20	TDNV	< -0.25
21	GNPSIPHGVSVAARFELNAV	< -0.25

# (list continues)

row,Substance,growth estimate
1,LGGVQSTTRANGQNQGSALL,< -0.25
2,SDEQIVGVGPLAY,< -0.25
3,LQGHHAGHGGPPMCTPGSAV,< -0.25
4,NMTE,< -0.25
5,HIEGPRWMLKNNRCSIT,< -0.25
6,GTGFSLMVQQTTRPLWVDFC,< -0.25
7,SRLNNGFGSLSLPYWCSACP,< -0.25
8,HWEMLAT,< -0.25
9,RQTKGTGMHQREQSMVCISF,0.0823
10,PSFRGALPWLSMCNGGHVDG,< -0.25
11,RRCGGPLVPTTVV,< -0.25
12,VKWPSGWNAKWEKAVHR,< -0.25
13,ALIFVYDTTMAYVASIGWFS,< -0.25
14,LDQPVISWIFELPGRRGQRV,< -0.25
15,LMELCLTWCAPLSRNVRSQS,< -0.25
16,YWSHSLVTCMRFITS,< -0.25
17,ALRKTVAHIGRYEDPHIRQF,< -0.25
18,GGDASKGSASS,< -0.25
19,HEVL,< -0.25
20,IGTLSTPPSSGTLHRVGGYS,< -0.25
21,SSDLIRPN,< -0.25
22,VGCVVPTSRQSERMRQGGSP,< -0.25
23,ETTWGVGTPLAHNDCLGRLR,< -0.25
24,RTMQAR,< -0.25

# Pulled one by one from the list above (seven):
row,Substance,growth estimate
21,SSDLIRPN,< -0.25
7,TPAVVAWELSEK,< -0.25
19,HEVL,< -0.25
2,ILMSVDP,< -0.25
13,GVLMINN,< -0.25
10,PSFRGALPWLSMCNGGHVDG,< -0.25
3,LQGHHAGHGGPPMCTPGSAV,< -0.25

# (listing goes on)

row,Substance,growth estimate
1,GAAGLHTQMR,< -0.25
2,PANCQTAGDSGPRCAVNLAG,< -0.25
3,GSVAHSGG,< -0.25
4,KNGLERRLKSNYPVLLISR,< -0.25
5,PITRAVGTGALQCPCVHIVV,< -0.25
6,RQV,< -0.25
7,AKRNLFFRSCFYITCLCGTR,< -0.25
8,ILTSGSTLDFNALILDSEST,< -0.25
9,IDGNLYILLSGLGCCPIDGP,< -0.25
10,TNEDGVIGGYPHTASRLLAF,< -0.25
11,LSAFELAAPVSGHATSAPPR,< -0.25
12,HRDTCQLNGWDPFKLETIVV,< -0.25
13,CLVR,< -0.25
14,LAQPCIWVLTIGPPETA,< -0.25
15,LMPLCLERLFIICEAK,< -0.25
16,SCSGRWSGRLLTVRT,< -0.25
17,ADSGACHLPPKQVEALAGHK,< -0.25
18,EAELCRTPLHEV,< -0.25
19,GTAVRTSRSRGNDLRTKCVP,< -0.25
20,ATWGPQVLPSVAPGATVLR,< -0.25
21,EAGTGVQTHYALPGILHP,< -0.25
22,WRNTFVTKRARGRWPSTV,< -0.25
23,RMEVVILPTIANGVYLRQT,< -0.25
24,LPAGVVQNLAWLCAPAMRLS,< -0.25

row,Substance,growth estimate
1,RQSVGISIRGCNPTPSVWGR,< -0.25
2,IYTRCNCTPL,< -0.25
3,GVQILRV,< -0.25
4,GPFG,< -0.25
5,APQTLRVLSNQ,< -0.25
6,RSP,< -0.25
7,VWPLYFWKQLQGRTAEEGNC,< -0.25
8,RYIFGTRWDLIPLACNTALL,< -0.25
9,FVLTRSIGGRAA,< -0.25
10,YTYCIGGR,< -0.25
11,SQEVRVRLID,< -0.25
12,MNTSAGDSG,< -0.25
13,GRQKLYNVACNPRVIYYAQP,< -0.25
14,RLSGGQVAVITHGLIGVGRP,< -0.25
15,FGYNTEATVIAVPLVARLEA,< -0.25
16,VCLPLPNGKWADGGILTV,< -0.25
17,RHASSLA,< -0.25
18,TRQ,< -0.25
19,HSGNRNTSNNVGVGT,< -0.25
20,SSL,< -0.25
21,NQGVHSARHVLGMSHYISA,< -0.25
22,TEFISMPRVPHRF,-0.0864
23,RLFLSAPMSYRIRGVFAGAV,< -0.25
24,WEVLRP,< -0.25

row,Substance,growth estimate
1,MDG,< -0.25
2,MSWYGSLLRR,< -0.25
3,VRESLGDLTITAYTWYEPGL,< -0.25
4,RESEPPDNCPVGMGNKSETF,< -0.25
5,RASPWNQLSRSGVRSPHASG,< -0.25
6,FTGDGGRVRF,< -0.25
7,AGRMMRNYRFVAPRRLSRVS,< -0.25
8,PFIFSGLAA,< -0.25
9,AQGPHHIGSRESHCRTNTNL,< -0.25
10,VRVQPVAPRLGAVSNTGTPS,< -0.25
11,SGHSFQ,-0.228
12,KRSGRG,< -0.25
13,GRLLAHDHFVRCSDTQRTEC,< -0.25
14,SHTTVWSRHGRRRWQ,< -0.25
15,SHPRVEGCGLFSSWQ,< -0.25
16,NETKELRMAQCCQQQVDRTR,< -0.25
17,SIRFIETGSECQPHGTRSAP,< -0.25
18,PREMKGAQEIGDH,< -0.25
19,AIPPS,< -0.25
20,KPVLEPFVAKPPSAVNTGDQ,-0.229
21,CVIRPSDVLGELQNCSVHLR,-0.229
22,EGTWC,< -0.25
23,VKPLKMKARGRYRRRCLVWG,< -0.25
